Laboratory results reported in the supplement of paper PMC7877785.
± gives the uncertainty stated by the source. Many of these values have a large error.

Test: self-splicing fitness, log relative to wild type (ln ratio); higher = more splicing; Tetrahymena group I intron in knt gene, E. coli kanamycin selection, DiMSum; sequences stand for … in CUCUCU…GGAGGGAAAAGUUAUCAGGCAUGCACCUGGUAGCUAGUCUUUAAACCAAUAGAUUGCAUCGGUUUAAAAGGCAAGACCGUCAAAUUGCGGGAAAGGGGUCAACAGCCGUUCAGUACCAAGUCUCAGGGGAAACUUUGAGAUGGCCUUGCAAAGGGUAUGGUAAUAAGCUGACGGACAUGGUCCUAACCACGCAGCCAAGUCCUAAGUCAACAGAUCUUCUGUUGAUAUGGAUGCAGUUCACAGACUAAAUGUCGGUCGGGGAAGAUGUAUUCUUCUCAUAAGAUAUAGUCGGACCUCUCCUUAAUGGGAGCUAGCGGAUGAAGUGAUGCAACACUGGAGCCGCUGGGAACUAAUUUGUAUGCGAAAGUAUAUUGAUUAGUUUUGGAGUACUCGUGGUCG
Procedure, shortened: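 Colonies from six replicate transformations of E. coli BL21(DE3) were pooled and amplicon-sequenced on an Illumina HiSeq 2500. The library placed an intron with all eight P1ex-region nucleotides randomised inside the knt kanamycin-resistance gene on pET-22b(+), and cells grew overnight at 37°C or 30°C on LB agar with or without 25 μg/mL kanamycin (plus 100 μg/mL carbenicillin, 50 μM IPTG, 0.2% rhamnose). Fitness is the DiMSum error-weighted combination of wild-type-normalised replicate fold changes, kanamycin versus none.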

| Sequence | self-splicing fitness (ln) (30 °C) | self-splicing fitness (ln) (37 °C) |
| --- | --- | --- |
| CGGGAGCAAUAUUACGGCAU | -6.77 ± 1 |  |
| GGAGAGCAAUAUUACGACUA | -1.52 ± 0.93 | -1.06 ± 0.65 |
| GGUGAGCAAUAUUACGUUUU | -2.94 ± 0.26 | -1.6 ± 0.23 |
| UCGGAGCAAUAUUACGGGAA | -1.04 ± 0.76 |  |
| GUCAAGCAAUAUUACGCACU | -1.71 ± 0.062 | -0.433 ± 0.072 |
| UAUUAGCAAUAUUACGGAGC |  | -2.98 ± 1.1 |
| GGGGAGCAAUAUUACGGAAA | -1.07 ± 0.67 |  |
| CAUUAGCAAUAUUACGUCCC |  | -1.85 ± 0.66 |
| CGGUAGCAAUAUUACGUACU | -1.36 ± 0.15 | -0.578 ± 0.16 |
| GAUUAGCAAUAUUACGGUCC |  | -2.9 ± 0.75 |
| CUCUAGCAAUAUUACGGGCU | -4.45 ± 0.59 | -4.2 ± 0.51 |
| UAACAGCAAUAUUACGGUCC | -2.94 ± 0.15 | -1.99 ± 0.19 |
| UGGGAGCAAUAUUACGAUCU | -2.66 ± 0.62 | -0.727 ± 0.77 |
| UAAUAGCAAUAUUACGGUCC | -2.53 ± 0.33 | -0.635 ± 0.55 |
| AACCAGCAAUAUUACGUCGG | -3.79 ± 0.12 | -1.41 ± 0.094 |
| CUGUAGCAAUAUUACGGCCU | -5.15 ± 0.71 |  |
| UUCGAGCAAUAUUACGCGCU | -0.864 ± 0.76 | -2.3 ± 0.78 |
| CCCGAGCAAUAUUACGCCCC | -3.01 ± 0.76 |  |
| GCUAAGCAAUAUUACGCCAG | -2.93 ± 1.1 | -1.22 ± 0.75 |
| GACUAGCAAUAUUACGAUGG | -3.49 ± 0.13 | -2.24 ± 0.12 |
| CGGGAGCAAUAUUACGGCUA |  | -2.25 ± 0.51 |
| UCGGAGCAAUAUUACGUCAG | -2.42 ± 0.63 |  |
| UCCCAGCAAUAUUACGGAGC | -1.44 ± 0.098 | -1.44 ± 0.18 |
| UGCAAGCAAUAUUACGAAUC |  | -3.22 ± 0.73 |

Part of the list above, field by field.
UAUUAGCAAUAUUACGGAGC
  self-splicing fitness (ln) (37 °C) = -2.98 ± 1.1
CUGUAGCAAUAUUACGGCCU
  self-splicing fitness (ln) (30 °C) = -5.15 ± 0.71
UUCGAGCAAUAUUACGCGCU
  self-splicing fitness (ln) (30 °C) = -0.864 ± 0.76; self-splicing fitness (ln) (37 °C) = -2.3 ± 0.78
UCGGAGCAAUAUUACGUCAG
  self-splicing fitness (ln) (30 °C) = -2.42 ± 0.63

Further records follow.

| Sequence | self-splicing fitness (ln) (30 °C) | self-splicing fitness (ln) (37 °C) |
| --- | --- | --- |
| GCAAAGCAAUAUUACGCCAG | -2.38 ± 0.15 | -3.19 ± 0.29 |
| CUUUAGCAAUAUUACGUGGC | -4.32 ± 0.59 |  |
| UGCUAGCAAUAUUACGCCGC | -2.62 ± 1.1 | -2.25 ± 0.64 |
| CAUUAGCAAUAUUACGGAAC | -3.94 ± 0.59 |  |
| GUCGAGCAAUAUUACGCCAG | -3.39 ± 0.55 |  |
| CAUGAGCAAUAUUACGAUCG | -0.0708 ± 0.12 | -0.399 ± 0.14 |
| GUUCAGCAAUAUUACGCCAG | -2.06 ± 0.29 | -2.41 ± 0.56 |
| UGAAAGCAAUAUUACGCCGC | -2.52 ± 0.85 | -2.16 ± 0.57 |
| CUCCAGCAAUAUUACGACCC | -3.35 ± 1 | -1.82 ± 0.6 |
| AUCUAGCAAUAUUACGCUGG | -4.42 ± 0.51 | -3.3 ± 0.52 |
| CUGAAGCAAUAUUACGAAGC | -3.8 ± 0.72 |  |
| CAUCAGCAAUAUUACGCGAC | -4.17 ± 0.29 | -2.92 ± 0.22 |
| CUCUAGCAAUAUUACGGUUA | -3.73 ± 0.75 |  |
| GUUAAGCAAUAUUACGUGGC | -2.56 ± 0.55 | -2.1 ± 0.33 |
| AUGGAGCAAUAUUACGUACA | -1.81 ± 0.66 | -0.842 ± 0.62 |
| CUGUAGCAAUAUUACGCAAA |  | 0.0981 ± 1.2 |
| ACGGAGCAAUAUUACGACCC | -1.69 ± 0.91 |  |
| UUCGAGCAAUAUUACGCUGC |  | -1.73 ± 0.52 |
| UUGGAGCAAUAUUACGCUCG | -0.158 ± 0.62 | -0.0228 ± 0.55 |
| AGCUAGCAAUAUUACGCAUC |  | -2.32 ± 0.64 |
| UGCAAGCAAUAUUACGCUAC |  | -2.75 ± 0.76 |
| GGCAAGCAAUAUUACGCCCG |  | -1.54 ± 0.69 |
| AGGGAGCAAUAUUACGACGG | -4.4 ± 1 | -3.09 ± 1 |
| GUCGAGCAAUAUUACGACCA | -1.67 ± 0.65 |  |

| Sequence | self-splicing fitness (ln) (30 °C) | self-splicing fitness (ln) (37 °C) |
| --- | --- | --- |
| GGCGAGCAAUAUUACGCGAC |  | -0.195 ± 0.56 |
| UAGGAGCAAUAUUACGAAUA |  | -1.05 ± 0.65 |
| CUUUAGCAAUAUUACGUGCC | -1.27 ± 0.71 | -1.23 ± 0.6 |
| UCUCAGCAAUAUUACGCGAG | -3.73 ± 0.37 | -0.582 ± 0.15 |
| UUUUAGCAAUAUUACGGAGC | -2.24 ± 0.38 | -2.37 ± 0.49 |
| CAUGAGCAAUAUUACGACAC | -3.45 ± 0.73 |  |
| CUUUAGCAAUAUUACGCAGG |  | -2.59 ± 0.62 |
| CCCCAGCAAUAUUACGGCCU | -3.02 ± 0.29 | -2.82 ± 0.47 |
| CCUCAGCAAUAUUACGAAAC | -3.14 ± 0.53 |  |
| UCCAAGCAAUAUUACGGGAG | -2.57 ± 0.16 | -2.9 ± 0.35 |
| GUCCAGCAAUAUUACGCCAA | -2.63 ± 0.18 | -2.72 ± 0.16 |
| CGACAGCAAUAUUACGUAUA | -4.3 ± 0.47 | -1.54 ± 0.27 |
| UACGAGCAAUAUUACGACCC | -3.21 ± 1.1 | 0.0981 ± 1.2 |
| ACUUAGCAAUAUUACGGCCU | -0.24 ± 0.1 | 0.312 ± 0.11 |
| CAGUAGCAAUAUUACGAAUC |  | -2.29 ± 0.63 |
| AGAGAGCAAUAUUACGCCAU | -3.13 ± 1 |  |
| UCGUAGCAAUAUUACGCUGC | -3.59 ± 0.52 |  |
| AUUUAGCAAUAUUACGCAGG |  | -2.42 ± 0.56 |
| GCAGAGCAAUAUUACGCAUG | -3.52 ± 1.1 |  |
| CCUAAGCAAUAUUACGCCUU | -3.22 ± 0.21 | -2.79 ± 0.26 |
| CAUUAGCAAUAUUACGGUCC | -4.15 ± 0.6 |  |
| GGUAAGCAAUAUUACGAUAG | -3.14 ± 0.2 | -2.14 ± 0.24 |
| CGGUAGCAAUAUUACGGAAU | -2.47 ± 0.63 |  |
| CUCAAGCAAUAUUACGUGCC | -2.96 ± 0.11 | -2.29 ± 0.17 |

| Sequence | self-splicing fitness (ln) (30 °C) | self-splicing fitness (ln) (37 °C) |
| --- | --- | --- |
| UAGGAGCAAUAUUACGCAAA |  | -2.54 ± 0.54 |
| GUGUAGCAAUAUUACGCACA | -2.84 ± 0.54 |  |
| UCGGAGCAAUAUUACGCCCG | -1.39 ± 0.63 | -0.927 ± 1.2 |
| CACGAGCAAUAUUACGCACC | -1.33 ± 0.51 |  |
| GCCUAGCAAUAUUACGCUAG | -4.7 ± 0.72 |  |
| CGCAAGCAAUAUUACGUACU | -1.64 ± 0.075 | -0.119 ± 0.096 |
| GAACAGCAAUAUUACGCCAC |  | -3.26 ± 0.6 |
| GAGAAGCAAUAUUACGCCAG | -2.86 ± 0.79 |  |
| GGGGAGCAAUAUUACGGCAG |  | -1.69 ± 0.82 |
| GGGGAGCAAUAUUACGAAGU |  | -3.37 ± 0.6 |
| CCAGAGCAAUAUUACGCCGC | -2.27 ± 0.54 |  |
| CAUGAGCAAUAUUACGUUCC | -1.38 ± 0.52 |  |
| CUGUAGCAAUAUUACGGCAA |  | -3.76 ± 0.59 |
| UGUAAGCAAUAUUACGACCA | 0.386 ± 0.12 | 0.0758 ± 0.19 |
| UGUGAGCAAUAUUACGCCAU | -0.868 ± 1 | -2.87 ± 0.75 |
| GCUGAGCAAUAUUACGCGCC |  | -1.24 ± 0.55 |
| CAUAAGCAAUAUUACGGAAA | -3.85 ± 0.52 |  |
| ACGGAGCAAUAUUACGCCAU |  | -3.69 ± 0.59 |
| CUGGAGCAAUAUUACGCUCU | -2.84 ± 0.75 | -2.15 ± 0.51 |
| ACGCAGCAAUAUUACGUGUU | -4.19 ± 0.1 | -2.85 ± 0.14 |
| UUCGAGCAAUAUUACGGUUC | -3.6 ± 1 | -3.12 ± 0.6 |
| AUUCAGCAAUAUUACGCUAC | -3.48 ± 1.1 | -2.08 ± 0.56 |
| CCGGAGCAAUAUUACGAAUA | -3.1 ± 0.61 |  |
| CUCCAGCAAUAUUACGGCGU | -3.61 ± 0.17 | -3.4 ± 0.23 |

Look-ups from above.
In self-splicing fitness (ln) (37 °C), CAGUAGCAAUAUUACGAAUC is listed with -2.29 ± 0.63
In self-splicing fitness (ln) (37 °C), CGGGAGCAAUAUUACGGCUA is listed with -2.25 ± 0.51

Next entries

| Sequence | self-splicing fitness (ln) (30 °C) | self-splicing fitness (ln) (37 °C) |
| --- | --- | --- |
| CUUGAGCAAUAUUACGGCCU |  | -3.02 ± 0.74 |
| GCGAAGCAAUAUUACGGAGC | -2.69 ± 0.16 | -2.52 ± 0.21 |
| GUAUAGCAAUAUUACGAGUC | -3.65 ± 0.38 | -0.711 ± 0.19 |
| AUGCAGCAAUAUUACGUCAC | -3.95 ± 0.59 |  |
| GGUUAGCAAUAUUACGGGGC | -3.32 ± 0.6 |  |
| CCAGAGCAAUAUUACGCACC | -4.59 ± 0.59 |  |
| CGGAAGCAAUAUUACGCGCC | -4.98 ± 0.73 |  |
| GAAAAGCAAUAUUACGAUGC | -0.709 ± 0.08 | -0.503 ± 0.1 |
| CUUGAGCAAUAUUACGGCCC |  | -0.145 ± 0.71 |
| CAGAAGCAAUAUUACGUUCC | -1.85 ± 0.54 |  |
| CUUUAGCAAUAUUACGUUAU | -3.64 ± 0.23 | -1.79 ± 0.19 |
| UUUGAGCAAUAUUACGAGUA | -3.35 ± 0.74 |  |
| GUAUAGCAAUAUUACGGGGC | -4.73 ± 1 |  |
| CCGGAGCAAUAUUACGCACU | -4.36 ± 0.52 |  |
| CUUCAGCAAUAUUACGAUGC | -2.93 ± 0.21 | -2.23 ± 0.23 |
| GUGUAGCAAUAUUACGCCAC | -2.67 ± 0.63 |  |
| AGCGAGCAAUAUUACGUUGC | -3.61 ± 0.53 |  |
| CUCGAGCAAUAUUACGAUCA |  | -2.53 ± 0.76 |
| CUAAAGCAAUAUUACGACUG | 0.0292 ± 0.098 | 0.417 ± 0.12 |
| CAAGAGCAAUAUUACGCUAG | -4.59 ± 0.59 |  |
| AUGGAGCAAUAUUACGCCGG |  | -1.65 ± 0.54 |
